Results are given in words; binding and its absence hold for the method and conditions named. Binding seen in cells or lysates may run through a third protein. Some entries that bind do so weakly or less than the wild type. Tags and fused reporters may be left off the sequences shown.
Molecular target: T1, Tripartite motif-containing protein 46, Myc-tagged (TRIM46-Myc) (UniProt Q7Z4K8)
T1 sequence: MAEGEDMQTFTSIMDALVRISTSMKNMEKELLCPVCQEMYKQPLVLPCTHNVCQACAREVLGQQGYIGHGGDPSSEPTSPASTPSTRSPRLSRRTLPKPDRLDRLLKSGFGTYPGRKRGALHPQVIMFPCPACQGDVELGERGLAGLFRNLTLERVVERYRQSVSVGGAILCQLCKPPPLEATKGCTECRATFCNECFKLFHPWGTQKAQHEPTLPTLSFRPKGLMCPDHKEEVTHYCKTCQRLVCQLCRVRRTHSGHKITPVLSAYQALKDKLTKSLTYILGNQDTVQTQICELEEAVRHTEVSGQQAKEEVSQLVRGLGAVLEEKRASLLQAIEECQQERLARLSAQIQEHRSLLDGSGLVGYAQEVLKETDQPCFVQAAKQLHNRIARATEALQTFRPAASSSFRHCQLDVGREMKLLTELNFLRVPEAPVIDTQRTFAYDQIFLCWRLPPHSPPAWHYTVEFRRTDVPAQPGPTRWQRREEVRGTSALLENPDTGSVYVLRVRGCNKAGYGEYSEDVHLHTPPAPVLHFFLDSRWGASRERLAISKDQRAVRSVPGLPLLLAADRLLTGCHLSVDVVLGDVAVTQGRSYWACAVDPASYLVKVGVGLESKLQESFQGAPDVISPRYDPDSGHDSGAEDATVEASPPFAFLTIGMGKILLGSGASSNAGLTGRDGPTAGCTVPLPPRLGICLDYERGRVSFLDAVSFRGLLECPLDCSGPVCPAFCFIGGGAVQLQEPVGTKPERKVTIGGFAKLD
Assay: co-IP

B1: TANK-binding kinase 1, FLAG-tagged (TBK1-Flag) (protein, UniProt Q9UHD2 1-729)
chain: MQSTSNHLWLLSDILGQGATANVFRGRHKKTGDLFAIKVFNNISFLRPVDVQMREFEVLKKLNHKNIVKLFAIEEETTTRHKVLIMEFCPCGSLYTVLEEPSNAYGLPESEFLIVLRDVVGGMNHLRENGIVHRDIKPGNIMRVIGEDGQSVYKLTDFGAARELEDDEQFVSLYGTEEYLHPDMYERAVLRKDHQKKYGATVDLWSIGVTFYHAATGSLPFRPFEGPRRNKEVMYKIITGKPSGAISGVQKAENGPIDWSGDMPVSCSLSRGLQVLLTPVLANILEADQEKCWGFDQFFAETSDILHRMVIHVFSLQQMTAHKIYIHSYNTATIFHELVYKQTKIISSNQELIYEGRRLVLEPGRLAQHFPKTTEENPIFVVSREPLNTIGLIYEKISLPKVHPRYDLDGDASMAKAITGVVCYACRIASTLLLYQELMRKGIRWLIELIKDDYNETVHKKTEVVITLDFCIRNIEKTVKVYEKLMKINLEAAELGEISDIHTKLLRLSSSQGTIETSLQDIDSRLSPGGSLADAWAHQEGTHPKDRNVEKLQVLLNCMTEIYYQFKKDKAERRLAYNEEQIHKFDKQKLYYHATKAMTHFTDECVKKYEAFLNKSEEWIRKMLHLRKQLLSLTNQCFDIEEEVSKYQEYTNELQETLPQKMFTASSGIKHTMTPIYPSSNTLVEMTLGMKKLKEEMEGVVKELAENNHILERFGSLTMDGGLRNVDCL
**Q.** How did the binding turn out when B1 was run?
**A.** Its binding is “binds”.

From article PMC9632593
